Results are given in words; binding and its absence hold for the method and conditions named. Binding seen in cells or lysates may run through a third protein. Some entries that bind do so weakly or less than the wild type.
Target: T1, Lipin3 (mouse, endogenous) (mouse (endogenous in WT mouse tissue and primary hepatocytes)) (UniProt Q99PI4)
T1 sequence: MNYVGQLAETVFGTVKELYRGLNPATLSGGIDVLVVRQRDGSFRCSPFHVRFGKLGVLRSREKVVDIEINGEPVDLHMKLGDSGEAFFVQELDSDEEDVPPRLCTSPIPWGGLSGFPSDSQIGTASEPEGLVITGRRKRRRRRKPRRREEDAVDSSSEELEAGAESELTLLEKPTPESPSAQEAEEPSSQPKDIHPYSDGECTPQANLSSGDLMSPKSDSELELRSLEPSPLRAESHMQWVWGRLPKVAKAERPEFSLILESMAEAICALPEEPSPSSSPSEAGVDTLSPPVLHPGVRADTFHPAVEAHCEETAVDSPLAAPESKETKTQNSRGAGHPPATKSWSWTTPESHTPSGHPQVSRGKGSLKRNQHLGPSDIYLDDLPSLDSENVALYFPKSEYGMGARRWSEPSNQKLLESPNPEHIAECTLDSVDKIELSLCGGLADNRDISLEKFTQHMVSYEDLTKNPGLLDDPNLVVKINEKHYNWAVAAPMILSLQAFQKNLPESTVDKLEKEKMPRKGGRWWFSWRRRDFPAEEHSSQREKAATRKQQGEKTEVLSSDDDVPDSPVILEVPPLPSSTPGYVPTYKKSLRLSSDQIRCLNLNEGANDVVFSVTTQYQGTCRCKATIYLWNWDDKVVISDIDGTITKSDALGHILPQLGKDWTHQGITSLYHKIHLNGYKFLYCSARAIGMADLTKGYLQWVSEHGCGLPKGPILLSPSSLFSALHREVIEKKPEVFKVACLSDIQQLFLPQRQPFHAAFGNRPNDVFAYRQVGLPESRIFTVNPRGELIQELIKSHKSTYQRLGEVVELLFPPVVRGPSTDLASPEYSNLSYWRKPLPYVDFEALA
Experiment: co-IP; mouse primary hepatocytes, endogenous proteins; immunoprecipitates washed, Western blot

Protein sequences, listed by entry. Tags and fused reporters are not part of them.
UniProt P52332: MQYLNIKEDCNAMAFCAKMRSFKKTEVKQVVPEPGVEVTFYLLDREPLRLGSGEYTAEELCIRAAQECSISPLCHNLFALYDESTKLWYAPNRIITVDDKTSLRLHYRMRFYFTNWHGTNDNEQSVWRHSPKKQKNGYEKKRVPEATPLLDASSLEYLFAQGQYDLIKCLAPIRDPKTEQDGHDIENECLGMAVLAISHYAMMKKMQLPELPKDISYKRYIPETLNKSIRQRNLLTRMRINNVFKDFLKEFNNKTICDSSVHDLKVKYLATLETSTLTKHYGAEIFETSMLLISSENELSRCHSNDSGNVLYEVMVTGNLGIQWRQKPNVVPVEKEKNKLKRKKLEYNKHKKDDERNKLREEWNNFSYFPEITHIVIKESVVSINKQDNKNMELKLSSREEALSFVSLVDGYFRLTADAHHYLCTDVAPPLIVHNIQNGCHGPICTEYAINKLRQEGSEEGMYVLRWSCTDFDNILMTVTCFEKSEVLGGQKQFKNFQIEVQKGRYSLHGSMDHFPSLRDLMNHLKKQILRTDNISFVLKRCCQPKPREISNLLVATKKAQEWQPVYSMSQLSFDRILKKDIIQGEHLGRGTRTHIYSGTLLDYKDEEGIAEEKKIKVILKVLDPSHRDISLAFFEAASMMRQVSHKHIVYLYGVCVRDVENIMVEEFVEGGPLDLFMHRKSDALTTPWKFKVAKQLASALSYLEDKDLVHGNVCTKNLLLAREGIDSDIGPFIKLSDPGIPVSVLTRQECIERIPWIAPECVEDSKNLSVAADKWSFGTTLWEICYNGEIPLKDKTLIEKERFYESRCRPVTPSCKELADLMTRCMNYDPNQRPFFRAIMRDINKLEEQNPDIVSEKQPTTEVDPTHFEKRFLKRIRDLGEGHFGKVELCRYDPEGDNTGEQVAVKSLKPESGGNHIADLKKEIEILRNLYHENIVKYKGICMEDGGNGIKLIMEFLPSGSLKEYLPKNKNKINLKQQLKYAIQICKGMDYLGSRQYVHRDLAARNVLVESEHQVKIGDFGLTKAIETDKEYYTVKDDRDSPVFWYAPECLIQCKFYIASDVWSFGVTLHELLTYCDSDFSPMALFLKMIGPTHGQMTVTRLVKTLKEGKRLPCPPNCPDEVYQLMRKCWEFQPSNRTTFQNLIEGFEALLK

binding: binds
Substance: JAK1 (mouse, endogenous) (from UniProt P52332 1-1153)

— PMC12514125
